Measurements taken from the supplement of paper PMC6411743.
± gives the standard deviation of the averaged measurements. The entries are a selection whose mix differs from that of the whole data set.

By UniProt entry, the sequences of proteins in these tests, tags left out. Where a name states a change or a piece, a line headed by the entry shows the natural chain unless it says otherwise.
UniProt P25440, whole entry, looked up: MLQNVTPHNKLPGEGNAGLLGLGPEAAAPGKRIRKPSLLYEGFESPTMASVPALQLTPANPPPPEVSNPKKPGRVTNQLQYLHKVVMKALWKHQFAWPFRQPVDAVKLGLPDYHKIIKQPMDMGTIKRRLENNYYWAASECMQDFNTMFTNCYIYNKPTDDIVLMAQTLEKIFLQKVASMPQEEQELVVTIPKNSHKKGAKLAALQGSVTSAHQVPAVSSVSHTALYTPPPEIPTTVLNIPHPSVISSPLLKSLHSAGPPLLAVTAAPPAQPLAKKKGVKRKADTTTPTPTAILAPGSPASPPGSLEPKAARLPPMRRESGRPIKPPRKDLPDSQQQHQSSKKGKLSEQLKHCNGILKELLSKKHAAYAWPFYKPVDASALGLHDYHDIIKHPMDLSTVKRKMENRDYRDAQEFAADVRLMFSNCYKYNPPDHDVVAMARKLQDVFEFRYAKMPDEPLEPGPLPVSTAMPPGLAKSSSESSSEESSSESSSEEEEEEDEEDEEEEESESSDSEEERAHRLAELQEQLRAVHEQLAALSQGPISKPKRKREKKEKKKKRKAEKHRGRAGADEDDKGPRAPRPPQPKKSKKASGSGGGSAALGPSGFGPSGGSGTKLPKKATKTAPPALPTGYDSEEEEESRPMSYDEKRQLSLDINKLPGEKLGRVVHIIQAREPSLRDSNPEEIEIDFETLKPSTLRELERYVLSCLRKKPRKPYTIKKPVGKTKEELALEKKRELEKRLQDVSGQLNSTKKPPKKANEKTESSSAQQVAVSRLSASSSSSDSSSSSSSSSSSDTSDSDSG
UniProt Q8NCE0: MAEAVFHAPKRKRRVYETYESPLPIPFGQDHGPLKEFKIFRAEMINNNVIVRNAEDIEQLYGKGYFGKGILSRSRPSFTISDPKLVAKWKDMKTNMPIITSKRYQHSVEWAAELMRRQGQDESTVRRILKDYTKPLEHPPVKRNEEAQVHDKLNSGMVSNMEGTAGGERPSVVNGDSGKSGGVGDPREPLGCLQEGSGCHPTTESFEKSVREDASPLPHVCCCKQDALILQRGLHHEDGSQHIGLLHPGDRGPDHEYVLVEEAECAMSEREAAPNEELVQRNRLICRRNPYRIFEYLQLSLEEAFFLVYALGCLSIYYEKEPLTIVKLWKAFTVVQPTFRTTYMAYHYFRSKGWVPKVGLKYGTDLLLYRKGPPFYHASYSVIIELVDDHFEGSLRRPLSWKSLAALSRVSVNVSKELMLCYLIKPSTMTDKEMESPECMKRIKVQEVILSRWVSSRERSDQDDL
UniProt Q86WP2: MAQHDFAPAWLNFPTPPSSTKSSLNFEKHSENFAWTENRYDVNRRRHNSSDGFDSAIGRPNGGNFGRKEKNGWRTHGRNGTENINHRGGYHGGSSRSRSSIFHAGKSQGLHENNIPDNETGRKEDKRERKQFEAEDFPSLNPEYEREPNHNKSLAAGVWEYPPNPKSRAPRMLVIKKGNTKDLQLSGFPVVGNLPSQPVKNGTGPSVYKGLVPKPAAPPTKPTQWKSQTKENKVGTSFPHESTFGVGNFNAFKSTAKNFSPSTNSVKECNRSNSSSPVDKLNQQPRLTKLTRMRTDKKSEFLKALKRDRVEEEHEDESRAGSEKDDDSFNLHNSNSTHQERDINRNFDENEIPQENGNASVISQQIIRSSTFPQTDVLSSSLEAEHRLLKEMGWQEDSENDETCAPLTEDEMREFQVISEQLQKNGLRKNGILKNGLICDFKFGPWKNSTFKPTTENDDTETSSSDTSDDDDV
UniProt Q9Y484: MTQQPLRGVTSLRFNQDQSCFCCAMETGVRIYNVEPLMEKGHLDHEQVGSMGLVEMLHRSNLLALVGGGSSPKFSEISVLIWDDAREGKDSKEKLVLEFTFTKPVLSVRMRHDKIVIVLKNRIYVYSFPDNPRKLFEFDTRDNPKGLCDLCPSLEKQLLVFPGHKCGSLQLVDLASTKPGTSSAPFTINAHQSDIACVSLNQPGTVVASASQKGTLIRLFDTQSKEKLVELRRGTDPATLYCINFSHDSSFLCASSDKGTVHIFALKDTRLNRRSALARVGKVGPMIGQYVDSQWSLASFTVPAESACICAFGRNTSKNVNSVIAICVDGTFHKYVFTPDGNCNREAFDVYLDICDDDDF
UniProt O14832: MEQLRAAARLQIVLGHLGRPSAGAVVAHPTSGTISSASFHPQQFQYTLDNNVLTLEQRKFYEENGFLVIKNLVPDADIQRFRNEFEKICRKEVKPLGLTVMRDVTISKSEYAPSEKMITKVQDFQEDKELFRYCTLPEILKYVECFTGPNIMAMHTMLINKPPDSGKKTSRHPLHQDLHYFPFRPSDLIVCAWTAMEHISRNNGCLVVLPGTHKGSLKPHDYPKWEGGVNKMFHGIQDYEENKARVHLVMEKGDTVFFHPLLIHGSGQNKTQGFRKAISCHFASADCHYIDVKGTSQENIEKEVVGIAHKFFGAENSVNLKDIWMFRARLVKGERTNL
UniProt Q9H0E9, whole entry: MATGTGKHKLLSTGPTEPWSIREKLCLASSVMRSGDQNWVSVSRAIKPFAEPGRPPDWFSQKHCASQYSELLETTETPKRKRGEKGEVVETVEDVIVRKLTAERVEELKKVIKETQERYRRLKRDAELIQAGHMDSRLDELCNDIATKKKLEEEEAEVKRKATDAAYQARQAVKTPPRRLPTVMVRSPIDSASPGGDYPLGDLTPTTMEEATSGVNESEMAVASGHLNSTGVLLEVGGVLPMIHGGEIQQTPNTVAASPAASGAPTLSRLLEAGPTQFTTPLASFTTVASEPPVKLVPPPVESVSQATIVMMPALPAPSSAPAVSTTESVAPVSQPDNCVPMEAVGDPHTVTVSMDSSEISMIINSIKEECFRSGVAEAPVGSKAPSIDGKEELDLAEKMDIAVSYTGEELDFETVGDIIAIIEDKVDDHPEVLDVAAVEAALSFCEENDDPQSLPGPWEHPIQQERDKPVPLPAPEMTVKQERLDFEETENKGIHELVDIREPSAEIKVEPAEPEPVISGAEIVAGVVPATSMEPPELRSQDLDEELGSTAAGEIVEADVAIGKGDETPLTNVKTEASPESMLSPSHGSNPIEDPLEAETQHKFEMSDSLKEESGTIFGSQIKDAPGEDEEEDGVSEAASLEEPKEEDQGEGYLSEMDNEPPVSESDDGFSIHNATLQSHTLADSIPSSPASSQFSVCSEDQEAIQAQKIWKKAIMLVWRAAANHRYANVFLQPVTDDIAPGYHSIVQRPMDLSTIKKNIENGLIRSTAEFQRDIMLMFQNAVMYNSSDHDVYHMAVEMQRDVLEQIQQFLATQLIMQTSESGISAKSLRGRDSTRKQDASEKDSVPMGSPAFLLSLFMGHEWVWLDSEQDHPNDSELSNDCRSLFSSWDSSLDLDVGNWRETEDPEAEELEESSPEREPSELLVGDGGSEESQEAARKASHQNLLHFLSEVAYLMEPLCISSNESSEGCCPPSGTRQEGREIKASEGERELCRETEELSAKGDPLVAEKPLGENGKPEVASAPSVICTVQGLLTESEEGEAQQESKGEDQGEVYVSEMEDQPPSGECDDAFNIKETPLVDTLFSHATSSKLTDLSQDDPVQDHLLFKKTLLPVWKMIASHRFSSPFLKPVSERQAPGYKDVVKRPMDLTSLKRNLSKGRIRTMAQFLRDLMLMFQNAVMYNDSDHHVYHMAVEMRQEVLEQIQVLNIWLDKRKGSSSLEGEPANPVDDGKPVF
UniProt Q9BYB0: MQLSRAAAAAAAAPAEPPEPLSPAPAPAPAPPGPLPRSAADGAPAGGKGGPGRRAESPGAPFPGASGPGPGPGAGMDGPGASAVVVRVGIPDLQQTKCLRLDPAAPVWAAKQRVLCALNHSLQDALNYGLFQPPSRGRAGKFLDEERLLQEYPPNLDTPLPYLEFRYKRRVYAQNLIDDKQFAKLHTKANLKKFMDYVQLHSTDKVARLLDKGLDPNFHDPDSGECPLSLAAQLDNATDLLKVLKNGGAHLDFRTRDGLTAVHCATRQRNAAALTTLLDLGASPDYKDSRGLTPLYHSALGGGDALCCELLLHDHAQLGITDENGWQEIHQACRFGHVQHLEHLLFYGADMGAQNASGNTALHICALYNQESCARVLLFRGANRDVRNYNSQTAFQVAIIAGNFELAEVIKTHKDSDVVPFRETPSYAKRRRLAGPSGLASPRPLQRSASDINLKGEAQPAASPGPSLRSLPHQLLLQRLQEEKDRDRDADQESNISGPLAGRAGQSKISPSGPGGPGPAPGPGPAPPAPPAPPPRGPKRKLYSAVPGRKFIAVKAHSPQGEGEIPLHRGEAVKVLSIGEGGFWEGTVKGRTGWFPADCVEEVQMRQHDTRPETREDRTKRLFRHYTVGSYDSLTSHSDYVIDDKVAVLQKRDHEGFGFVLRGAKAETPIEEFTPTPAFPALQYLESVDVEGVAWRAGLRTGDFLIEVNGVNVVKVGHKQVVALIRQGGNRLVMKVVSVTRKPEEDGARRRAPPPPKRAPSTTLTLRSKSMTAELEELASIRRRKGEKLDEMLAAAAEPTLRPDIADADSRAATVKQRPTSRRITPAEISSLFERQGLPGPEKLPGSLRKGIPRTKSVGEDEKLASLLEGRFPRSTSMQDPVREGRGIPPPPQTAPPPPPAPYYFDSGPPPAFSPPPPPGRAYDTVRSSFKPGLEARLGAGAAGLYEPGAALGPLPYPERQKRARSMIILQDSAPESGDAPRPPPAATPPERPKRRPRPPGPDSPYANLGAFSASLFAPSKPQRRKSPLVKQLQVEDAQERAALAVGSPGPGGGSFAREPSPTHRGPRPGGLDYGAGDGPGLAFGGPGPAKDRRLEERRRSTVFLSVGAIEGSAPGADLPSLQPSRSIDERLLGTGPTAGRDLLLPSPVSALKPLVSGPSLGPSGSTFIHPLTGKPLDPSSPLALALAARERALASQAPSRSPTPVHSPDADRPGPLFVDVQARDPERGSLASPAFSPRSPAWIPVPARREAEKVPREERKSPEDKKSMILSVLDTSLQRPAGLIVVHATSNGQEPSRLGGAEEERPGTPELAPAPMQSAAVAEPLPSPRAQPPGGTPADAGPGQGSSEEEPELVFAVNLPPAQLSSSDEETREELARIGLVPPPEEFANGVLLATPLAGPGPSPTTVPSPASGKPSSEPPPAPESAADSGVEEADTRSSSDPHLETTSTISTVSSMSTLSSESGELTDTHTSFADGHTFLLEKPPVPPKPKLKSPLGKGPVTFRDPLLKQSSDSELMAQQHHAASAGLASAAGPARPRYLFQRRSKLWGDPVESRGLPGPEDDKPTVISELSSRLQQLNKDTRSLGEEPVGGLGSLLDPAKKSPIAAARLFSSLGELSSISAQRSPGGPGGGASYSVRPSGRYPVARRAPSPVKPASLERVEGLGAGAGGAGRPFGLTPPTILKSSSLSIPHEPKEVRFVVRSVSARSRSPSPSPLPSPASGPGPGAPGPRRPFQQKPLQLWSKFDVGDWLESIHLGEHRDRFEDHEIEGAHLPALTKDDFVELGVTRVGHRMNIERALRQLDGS
UniProt P84101: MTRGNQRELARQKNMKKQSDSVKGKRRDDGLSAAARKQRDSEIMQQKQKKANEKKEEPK
UniProt Q14919: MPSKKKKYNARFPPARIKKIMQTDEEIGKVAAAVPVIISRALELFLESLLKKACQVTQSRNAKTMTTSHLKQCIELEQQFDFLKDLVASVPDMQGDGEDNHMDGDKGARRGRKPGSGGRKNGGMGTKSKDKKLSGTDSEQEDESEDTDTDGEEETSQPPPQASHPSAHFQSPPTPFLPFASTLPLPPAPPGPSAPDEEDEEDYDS
UniProt P07602: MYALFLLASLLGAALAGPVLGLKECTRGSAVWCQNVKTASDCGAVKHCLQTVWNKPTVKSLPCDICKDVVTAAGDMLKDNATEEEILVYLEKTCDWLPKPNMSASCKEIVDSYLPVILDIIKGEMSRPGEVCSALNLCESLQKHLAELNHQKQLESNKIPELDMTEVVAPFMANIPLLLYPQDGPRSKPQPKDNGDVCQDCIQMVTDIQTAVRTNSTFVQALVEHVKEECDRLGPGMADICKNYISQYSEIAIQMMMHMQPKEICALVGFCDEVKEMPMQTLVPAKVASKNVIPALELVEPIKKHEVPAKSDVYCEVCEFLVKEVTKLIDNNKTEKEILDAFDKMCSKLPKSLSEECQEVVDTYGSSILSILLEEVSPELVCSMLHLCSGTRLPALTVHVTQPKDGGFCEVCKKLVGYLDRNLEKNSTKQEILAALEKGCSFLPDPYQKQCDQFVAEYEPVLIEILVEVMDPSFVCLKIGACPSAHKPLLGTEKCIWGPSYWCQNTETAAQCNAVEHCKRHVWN
UniProt Q6GTX8: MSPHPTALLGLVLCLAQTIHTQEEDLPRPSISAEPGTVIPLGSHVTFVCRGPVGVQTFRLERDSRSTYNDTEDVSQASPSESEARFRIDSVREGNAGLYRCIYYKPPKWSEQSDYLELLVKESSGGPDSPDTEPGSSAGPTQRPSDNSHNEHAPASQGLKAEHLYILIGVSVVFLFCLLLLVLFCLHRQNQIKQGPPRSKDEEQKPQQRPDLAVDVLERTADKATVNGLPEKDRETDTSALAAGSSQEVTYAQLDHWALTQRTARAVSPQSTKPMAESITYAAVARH

Compound: Nc1ncnc2c1ncn2[C@@H]1O[C@H](COP(=O)(O)OP(=O)(O)OP(=O)(O)O)[C@@H](O)[C@H]1O [adenosine triphosphate]
Assay: NP40-soluble protein abundance relative to vehicle (solubility fold change) (ratio); higher = more soluble protein in presence of ATP
How it was run: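 Data come from three independent experiments in which Dounce-homogenised Jurkat crude lysate was treated at eight concentrations from 0.1 to 10 mM. Treatment ran 10 min at room temperature and then 3 min at 37 °C, after which 0.8% NP40 and benzonase were added for 60 min at 4 °C before ultracentrifugation. The supernatant underwent TMT labelling and LC-MS/MS, and vsn-normalised intensities were expressed as fold change against the detergent-processed vehicle in each replicate.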

Target	NP40-soluble protein abundance (concentration: 1mM)	NP40-soluble protein abundance (concentration: 2mM)	NP40-soluble protein abundance (concentration: 4mM)	NP40-soluble protein abundance (concentration: 6mM)	NP40-soluble protein abundance (concentration: 8mM)	NP40-soluble protein abundance (concentration: 10mM)
A0A0U1RQT7|A0A0U1RQY7|Q8IXA3 and related entries (UniProt Q9HCP0)	1.11 ± 0.14	1.06 ± 0.031	1.09 ± 0.04	1.13 ± 0.098	1.16 ± 0.1	1.1 ± 0.072
C9JFR7 and related entries (UniProt P99999)	0.964 ± 0.033	0.957 ± 0.09	0.941 ± 0.05	0.982 ± 0.13	0.916 ± 0.052	0.911 ± 0.073
A0A0G2JK44|P25440 and related entries (UniProt P25440)	0.937 ± 0.048	0.994 ± 0.049	1.03 ± 0.064	1.09 ± 0.059	1.09 ± 0.049	1.14 ± 0.025
B4DR80 and related entries (UniProt Q9Y6E0)	0.977 ± 0.081	0.984 ± 0.036	1.02 ± 0.058	1.02 ± 0.037	0.996 ± 0.038	0.954 ± 0.021
C9J7Z4 and related entries (UniProt Q8NCE0)	1.04 ± 0.066	1.05 ± 0.024	1.06 ± 0.016	1.04 ± 0.025	1.05 ± 0.065	1 ± 0.038
D4PHA4 and related entries (UniProt Q86WP2)	0.983 ± 0.19	1.13 ± 0.1	1.07 ± 0.056	1.09 ± 0.11	1.15 ± 0.12	1.11 ± 0.077
A0A0U1RR06|A6NM71 and related entries (UniProt Q9Y484)	1.05 ± 0.15	1.11 ± 0.16	1.08 ± 0.08	1.05 ± 0.18	0.984 ± 0.062	0.963 ± 0.047
B1ALH6 and related entries (UniProt O14832)	0.928 ± 0.034	0.943 ± 0.016	0.93 ± 0.069	0.949 ± 0.02	0.895 ± 0.078	0.947 ± 0.046
C9JRZ6 and related entries (UniProt Q9NX63)	0.994 ± 0.061	0.94 ± 0.038	0.901 ± 0.063	0.957 ± 0.14	0.908 ± 0.07	0.893 ± 0.029
A2A274 and related entries (UniProt Q99798)	1.02 ± 0.031	1.02 ± 0.036	0.99 ± 0.029	0.992 ± 0.066	1 ± 0.052	0.978 ± 0.041
A0A0G2JLB3|A0A0G2JNZ0|A0A0G2JNZ5|P04062 and related entries (UniProt P04062)	0.896 ± 0.12	0.951 ± 0.051	0.94 ± 0.043	0.917 ± 0.076	0.898 ± 0.057	0.929 ± 0.029
UniProt A2RU67	1.01 ± 0.088	1.01 ± 0.03	1.02 ± 0.052	1.04 ± 0.038	0.9724 ± 0.0062	0.938 ± 0.077
B0QZ40 and related entries (UniProt Q7Z4G1)	0.903 ± 0.051	0.879 ± 0.017	0.866 ± 0.031	0.924 ± 0.12	0.929 ± 0.079	0.8036 ± 0.0037
D6RDM7 and related entries (UniProt P61086)	0.946 ± 0.087	0.956 ± 0.061	0.923 ± 0.071	0.941 ± 0.091	0.916 ± 0.074	0.927 ± 0.031
B5MCW3 and related entries (UniProt Q9H0E9)	0.972 ± 0.06	0.964 ± 0.046	0.957 ± 0.083	1.03 ± 0.1	0.976 ± 0.059	0.988 ± 0.044
A0A0U1RQS4|A0A0U1RR93|Q9BYB0 and related entries (UniProt Q9BYB0)	1.02 ± 0.045	0.9494 ± 0.0062	0.985 ± 0.013	0.954 ± 0.01	1.091 ± 0.005	1.05 ± 0.016
B8ZZY7 and related entries (UniProt P84101)	0.713 ± 0.063	0.698 ± 0.13	0.63 ± 0.022	0.733 ± 0.12	0.579 ± 0.1	0.706 ± 0.1
B7ZVY7 and related entries (UniProt P21127+B7ZVY7)	0.868 ± 0.035	0.784 ± 0.041	0.7 ± 0.043	0.696 ± 0.044	0.697 ± 0.032	0.713 ± 0.063
CCDC88B (UniProt A6NC98)	0.949 ± 0.039	0.968 ± 0.066	1 ± 0.071	0.96 ± 0.06	0.923 ± 0.082	0.918 ± 0.073
A2IDC6 and related entries (UniProt Q13084)	1.01 ± 0.067	0.857 ± 0.048	0.838 ± 0.16	0.826 ± 0.28	0.901 ± 0.24	0.797 ± 0.17
A6NHB5 and related entries (UniProt Q14202)	1.08 ± 0.041	1.09 ± 0.046	1.12 ± 0.051	1.14 ± 0.09	1.17 ± 0.096	1.21 ± 0.077
B0QYS6 and related entries (UniProt P19484)	1.04 ± 0.13	0.884 ± 0.041	1.06 ± 0.012	0.957 ± 0.017	0.913 ± 0.12	0.936 ± 0.1
D6RB01 and related entries (UniProt Q9Y6X4)	0.922 ± 0.048	0.894 ± 0.022	0.9183 ± 0.0089	0.9357 ± 0.0011	0.88 ± 0.019	0.901 ± 0.028
C9J2Q2 and related entries (UniProt Q8N5M1)	1.03 ± 0.13	1.01 ± 0.11	0.996 ± 0.14	0.901 ± 0.16	1.11 ± 0.11	1.03 ± 0.091
A9X3U0 and related entries (UniProt Q96GF1)	0.982 ± 0.1	0.997 ± 0.12	0.964 ± 0.15	1 ± 0.13	0.96 ± 0.16	0.959 ± 0.16
C9JCC6 and related entries (UniProt Q14919)	0.915 ± 0.25	0.781 ± 0.12	0.737 ± 0.17	0.672 ± 0.14	0.725 ± 0.074	0.579 ± 0.23
A0A0G2JJD3|O95870 (UniProt O95870)	1.02 ± 0.1	1.03 ± 0.095	1.04 ± 0.1	0.945 ± 0.13	1.08 ± 0.031	1.06 ± 0.018
C9JIZ6 and related entries (UniProt P07602)	0.914 ± 0.092	0.917 ± 0.052	0.896 ± 0.049	0.96 ± 0.083	0.892 ± 0.014	0.816 ± 0.089
D6REX3 and related entries (UniProt O94979)	0.962 ± 0.027	0.942 ± 0.016	0.939 ± 0.023	0.941 ± 0.041	0.949 ± 0.023	0.945 ± 0.039
A0A0G2JLV7|A0A0G2JMI0|A0A0G2JNK8|A0A0G2JNU6|A0A0G2JP18|A0A0G2JQ50|A0A140T8W3|Q6GTX8 and related entries (UniProt Q6GTX8)	0.984 ± 0.12	0.983 ± 0.049	0.993 ± 0.071	0.991 ± 0.07	0.977 ± 0.046	0.889 ± 0.069

Reformatted with each value named: part of the list above
C9J7Z4 and related entries (UniProt Q8NCE0)
  NP40-soluble protein abundance (concentration: 1mM): 1.04 ± 0.066; NP40-soluble protein abundance (concentration: 2mM): 1.05 ± 0.024; NP40-soluble protein abundance (concentration: 4mM): 1.06 ± 0.016; NP40-soluble protein abundance (concentration: 6mM): 1.04 ± 0.025; NP40-soluble protein abundance (concentration: 8mM): 1.05 ± 0.065; NP40-soluble protein abundance (concentration: 10mM): 1 ± 0.038
D4PHA4 and related entries (UniProt Q86WP2)
  NP40-soluble protein abundance (concentration: 1mM): 0.983 ± 0.19; NP40-soluble protein abundance (concentration: 2mM): 1.13 ± 0.1; NP40-soluble protein abundance (concentration: 4mM): 1.07 ± 0.056; NP40-soluble protein abundance (concentration: 6mM): 1.09 ± 0.11; NP40-soluble protein abundance (concentration: 8mM): 1.15 ± 0.12; NP40-soluble protein abundance (concentration: 10mM): 1.11 ± 0.077
